These are literature values, as cited in patent publication US20110052685A1, “GASTRIC RETENTIVE PHARMACEUTICAL COMPOSITIONS FOR IMMEDIATE AND EXTENDED RELEASE OF ACETAMINOPHEN” (DEPOMED, INC., priority 2009, published 2011).

For this data set the following is noted: general statement.

Read-outs that look alike come from different tables or passages of the source.

In the case of `CC(=O)Nc1ccc(O)cc1` [acetaminophen, N-(4-hydroxyphenyl)acetamine], the solubility in water result is on record as “sparingly soluble in water”. Further, the solubility in water result (listed as Acetaminophen) was “poorly soluble in water”.
